Data published in US12491217B2, “Compositions and methods for promoting healthy neural development in an unborn baby” (The Regents of the University of California, priority 2019, dated 2025).

Assay: Metabolomics of fetal brain at E14.5
Type: in vivo, C57Bl/6J mice
Conditions: E14.5 fetal brain metabolite level; for fold of change ABX/SPF: ANOVA contrast ABX vs SPF; for fold of change GF/ABX: ANOVA contrast GF vs ABX; for fold of change GF/SPF: ANOVA contrast GF vs SPF; for fold of change GF/Sp: ANOVA contrast GF vs Sp; for fold of change Sp/ABX: ANOVA contrast Sp vs ABX; for fold of change Sp/SPF: ANOVA contrast Sp vs SPF

Row | SMILES | fold of change ABX/SPF | fold of change GF/ABX | fold of change GF/SPF | fold of change GF/Sp | fold of change Sp/ABX | fold of change Sp/SPF
1 | CCCCCCCC/C=C\CCCCCC(O)CC(=O)OC(CC(=O)[O-])C[N+](C)(C)C (stereo not drawn) [compound 1503] | 0.89 | 0.66 | 0.59 | 0.81 | 0.82 | 0.73
2 | CCCCCCCCC=CCCCCCCCC(=O)OC(CC(=O)[O-])C[N+](C)(C)C (stereo not drawn) [compound 1504] | 0.71 | 1.60 | 1.14 | 1.06 | 1.50 | 1.07
3 | CCCC/C=C\CCCCCCCC(=O)OC(CC(=O)[O-])C[N+](C)(C)C (stereo not drawn) [compound 1506] | 0.83 | 2.29 | 1.90 | 1.27 | 1.81 | 1.50
4 | CCCCCCCCCCCCCCCCCCCC(=O)OC(CC(=O)[O-])C[N+](C)(C)C (stereo not drawn) [compound 1517] | 0.75 | 1.10 | 0.83 | 0.80 | 1.36 | 1.03
5 | CCCCCC=CCC=CCC=CCC=CCCCC(=O)OC(CC(=O)[O-])C[N+](C)(C)C (stereo not drawn) [compound 1518] | 0.76 | 1.27 | 0.96 | 1.05 | 1.21 | 0.92
6 | CCCCCC=CCC=CCC=CCC=CCCCCCC(=O)OC(CC(=O)[O-])C[N+](C)(C)C (stereo not drawn) [compound 1519] | 0.68 | 1.36 | 0.93 | 1.08 | 1.26 | 0.86
7 | CCCCCCCCC=CCC=CCC=CCCCC(=O)OC(CC(=O)[O-])C[N+](C)(C)C (stereo not drawn) [compound 1521] | 0.99 | 1.10 | 1.09 | 1.09 | 1.01 | 1.00
8 | CCCCC/C=C\C/C=C\CCCCCCCCCC(=O)OC(CC(=O)[O-])C[N+](C)(C)C (stereo not drawn) [compound 1523] | 0.76 | 1.42 | 1.07 | 1.02 | 1.39 | 1.05
9 | CC/C=C\C/C=C\C/C=C\C/C=C\C/C=C\CCCCCC(=O)OC(CC(=O)[O-])C[N+](C)(C)C (stereo not drawn) [compound 1528] | 0.82 | 0.84 | 0.68 | 0.86 | 0.97 | 0.79
10 | CCC=CCC=CCC=CCC=CCC=CCC=CCCC(=O)OC(CC(=O)[O-])C[N+](C)(C)C (stereo not drawn) [compound 1529] | 0.82 | 0.99 | 0.81 | 0.96 | 1.03 | 0.84
11 | CCCCCCCCCCCCCCC(=O)OC(CC(=O)[O-])C[N+](C)(C)C (stereo not drawn) [compound 1536] | 0.73 | 1.45 | 1.06 | 1.13 | 1.28 | 0.93
12 | CCCCCC=CCC=CCC=CCC=CCC=CCCC(=O)OC(CC(=O)[O-])C[N+](C)(C)C (stereo not drawn) [compound 1537] | 0.73 | 1.14 | 0.83 | 0.85 | 1.34 | 0.97
13 | CCCCCCCCCCCCCC(O)CC(=O)OC(CC(=O)[O-])C[N+](C)(C)C (stereo not drawn) [compound 1539] | 0.82 | 0.73 | 0.60 | 0.70 | 1.04 | 0.86
14 | C[N+](C)(C)CCCC(=O)[O-] [compound 1541] | 0.73 | 1.05 | 0.77 | 0.93 | 1.13 | 0.83
15 | C[N+](C)(C)CC(O)CC(=O)[O-] (stereo not drawn) [compound 1542] | 0.90 | 1.05 | 0.95 | 0.99 | 1.06 | 0.95
16 | CC(O)CC(=O)O (stereo not drawn) [compound 1547] | 1.05 | 3.16 | 3.32 | 4.03 | 0.79 | 0.82
17 | CCCCCC(O)C(=O)O (stereo not drawn) [compound 1565] | 0.35 | 2.23 | 0.77 | 0.81 | 2.77 | 0.96
18 | CCCCCCCCC(O)C(=O)O (stereo not drawn) [compound 1567] | 0.70 | 1.32 | 0.93 | 0.91 | 1.45 | 1.02
19 | CCCCCCCC(O)CC(=O)O (stereo not drawn) [compound 1582] | 0.95 | 1.02 | 0.97 | 0.90 | 1.14 | 1.08
20 | CCCCC[C@H](O)/C=C/C=C/C/C=C\CCCC(=O)O [compound 1711] | 0.40 | 1.61 | 0.64 | 0.92 | 1.75 | 0.69
21 | CCCCCCCC/C=C\CCCCCCCC(=O)NCCO [compound 1718] | 0.83 | 0.87 | 0.72 | 0.92 | 0.95 | 0.78
22 | CCCCCCCCCCCCCCCC(=O)NCCO [compound 1721] | 0.95 | 0.98 | 0.92 | 1.05 | 0.93 | 0.88
23 | CCCCCCCCCCCCCCCCCC(=O)NCCS(=O)(=O)O [compound 1731] | 0.79 | 0.80 | 0.63 | 1.01 | 0.79 | 0.63
24 | CCCCCCCCCCCCCCCC(=O)NCCS(=O)(=O)O [compound 1732] | 0.73 | 0.65 | 0.47 | 1.00 | 0.64 | 0.47
25 | CCCCCC/C=C\CCCCCCCC(=O)NCCO [compound 1744] | 0.84 | 0.94 | 0.79 | 1.00 | 0.94 | 0.79
